Test results as given in US20090304756A1, “Method for the Encapsulation and Controlled Release of Poorly Water-Soluble (Hyprophobic) Liquid and Solid Active Ingredients” (priority 2005, published 2009).
For at least one compound, name, drawing or mass did not settle the structure.

Experiments:
[1] = Release from LbL-coated particles in water; assay type: physicochemical; conditions: aqueous suspension of LbL-coated particles
[2] = Released amount after incubation of particles in methanol, UV spectroscopy of supernatant; assay type: physicochemical

## CCCCC(CC)COC(=O)C=Cc1ccc(OC)cc1 (stereo not drawn) [OMC, octyl methoxycinnamate]
[1]
  release in water: does not take place
[2]; aqueous suspension added to methanol
  time of triggered release when the aqueous suspension is added to methanol: within seconds
[2]; incubation 2 hours in methanol, UV spectroscopy at 310 nm, broken C18 silica about 5 μm, pore 10 nm, alginate + PAH/PSS layers
  released amount per particle: 22%
